Results are given in words; binding and its absence hold for the method and conditions named. In cells and extracts the contact can be indirect. A yes stands for co-enrichment or nearness to the bait. Other partners may have been found.

Chains of the proteins cited; added tags and fusions are not shown. Residues count along the entry.
UniProt P49841: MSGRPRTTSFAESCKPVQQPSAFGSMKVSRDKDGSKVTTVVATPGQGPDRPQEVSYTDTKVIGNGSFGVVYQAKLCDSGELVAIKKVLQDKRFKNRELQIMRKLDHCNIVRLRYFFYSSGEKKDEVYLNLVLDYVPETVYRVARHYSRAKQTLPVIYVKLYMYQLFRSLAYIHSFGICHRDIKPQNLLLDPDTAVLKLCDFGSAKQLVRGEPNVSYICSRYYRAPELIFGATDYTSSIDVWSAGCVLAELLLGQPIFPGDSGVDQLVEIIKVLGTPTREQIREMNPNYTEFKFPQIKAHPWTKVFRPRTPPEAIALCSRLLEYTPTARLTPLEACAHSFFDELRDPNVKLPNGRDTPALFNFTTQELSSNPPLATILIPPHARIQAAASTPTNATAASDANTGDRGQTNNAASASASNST
UniProt P11021, residues 19-654: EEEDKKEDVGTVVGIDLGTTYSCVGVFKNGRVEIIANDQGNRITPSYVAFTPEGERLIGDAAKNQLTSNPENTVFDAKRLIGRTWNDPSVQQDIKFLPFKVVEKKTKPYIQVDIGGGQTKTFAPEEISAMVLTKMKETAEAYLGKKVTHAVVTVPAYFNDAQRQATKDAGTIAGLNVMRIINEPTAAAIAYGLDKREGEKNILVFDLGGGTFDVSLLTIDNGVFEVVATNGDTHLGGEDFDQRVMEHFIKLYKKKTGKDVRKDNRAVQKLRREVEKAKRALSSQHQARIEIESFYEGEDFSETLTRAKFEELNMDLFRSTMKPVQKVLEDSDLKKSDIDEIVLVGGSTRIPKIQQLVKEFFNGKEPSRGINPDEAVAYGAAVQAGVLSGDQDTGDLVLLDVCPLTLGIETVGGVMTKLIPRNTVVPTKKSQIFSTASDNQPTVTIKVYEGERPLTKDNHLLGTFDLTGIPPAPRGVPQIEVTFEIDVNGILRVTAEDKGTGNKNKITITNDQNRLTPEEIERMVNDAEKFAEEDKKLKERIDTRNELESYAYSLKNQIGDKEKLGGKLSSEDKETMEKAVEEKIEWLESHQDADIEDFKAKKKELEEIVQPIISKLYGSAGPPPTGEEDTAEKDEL

This assay addresses Glycogen synthase kinase 3β (human (endogenous in macrophages from ITP patients)) (UniProt P49841). The experiment in a line: affinity purification with mass spectrometry; lysate of M0 macrophages from ITP patients incubated with anti GSK-3β antibody and protein A/G magnetic beads at 4 °C overnight; precipitate digested and analysed by LC-MS/MS; two independent samples, overlapped proteins used.

“HSPA5 (also known as GRP78 and BiP) (from UniProt P11021 19-654)”: the binding entry is “binds”.

The values are drawn from paper PMC12061250.
